Patent publication US8007800B2, “Methods for treating bone cancer pain by administering a nerve growth factor antagonist antibody” (Pfizer Inc., priority 2004, dated 2011)

Tested on: athymic nude mice injected with osteoblastic canine carcinoma ACE-1 cells into the femur
Experiment: Example 3: murine prostate (ACE-1) model of bone cancer pain, pain behaviors
Assay type: in vivo, mouse

CN1CC[C@]23c4c5ccc(O)c4O[C@H]2[C@@H](O)C=C[C@H]3[C@H]1C5.O=S(=O)(O)O [morphine sulfate]
ongoing guarding (time guarding of the injected limb) (acute 10 mg/kg morphine sulfate 15 min prior to testing, day 11): 3.5 ± 0.3 s | ongoing guarding (time guarding of the injected limb) (acute 10 mg/kg morphine sulfate 15 min prior to testing, day 19): 4.0 ± 0.5 s | ongoing flinching (number of flinches of the injected limb) (acute 10 mg/kg morphine sulfate, day 11): 5.6±0.5 | ongoing flinching (number of flinches of the injected limb) (acute 10 mg/kg morphine sulfate, day 19): 6.8±0.7 | ongoing guarding (time guarding of the injected limb) (acute 30 mg/kg morphine sulfate 15 min prior to testing, day 11): 2.2 ± 0.3 s | ongoing guarding (time guarding of the injected limb) (acute 30 mg/kg morphine sulfate 15 min prior to testing, day 19): 2.0 ± 0.4 s | ongoing flinching (number of flinches of the injected limb) (acute 30 mg/kg morphine sulfate, day 11): 3.6±0.5 | ongoing flinching (number of flinches of the injected limb) (acute 30 mg/kg morphine sulfate, day 19): 3.5±0.7
